No constants are given. Whether binding was seen depends on the method and setting. Some results given as binding are weak or reduced against the parent protein; the word gives no strength.
Biological target: human glutaredoxin-1 (human) (UniProt P35754)
Assay: NMR titration; 15N-1H HSQC of 15N-Cu(I)-hGrx1 (320-350 uM) titrated with unlabelled apo-Atox1 or apo-WLN5-6 to final ratios 3.8:1 and 7.1:1 (partner:hGrx1); Cu is transferred to the partner during the titration; 4 °C; 10 mM MES/Na, 50 mM NaCl, 1 mM TCEP, pH 6.0; both purified

By UniProt entry, the sequences of proteins in these tests, tags left out.
UniProt P35754: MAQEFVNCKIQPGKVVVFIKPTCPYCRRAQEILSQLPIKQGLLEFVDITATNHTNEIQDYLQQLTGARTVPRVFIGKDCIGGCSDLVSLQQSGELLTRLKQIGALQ

B1: ATP7B metal binding domains 5-6 (domain or fragment, UniProt P35670 486-633)
chain: APQKCFLQIKGMTCASCVSNIERNLQKEAGVLSVLVALMAGKAEIKYDPEVIQPLEIAQFIQDLGFEAAVMEDYAGSDGNIELTITGMTCASCVHNIESKLTRTNGITYASVALATSKALVKFDPEIIGPRDIIKIIEEIGFHASLAQ
Which binding does the source give for B1 here?
Its binding is “binds weakly”.

Reference: PMC7057996, “Human glutaredoxin-1 can transfer copper to isolated metal binding domains of the P1B-type ATPase, ATP7B” (Scientific Reports, 2020)
